# Results from PubChem BioAssay AID493014 (National Center for Advancing Translational Sciences (NCATS), 2011).
# Some of the results follow. Further columns of the screen follow, without active or inactive calls. Compounds called inactive in the main read-out are mostly missing here. Words in brackets tell the shape of the fitted curve; partial curves, single points and poor fits give uncertain potencies.
# Assay: qHTS Assay to Find Inhibitors of Chronic Active B-Cell Receptor Signaling
# Settings: ABC-DLBCL IkBa-CBG/CBR reporter, luminescence ratio (green luciferase fused to IkBa over red control in TMD8 lymphoma cells), 4 h
# Procedure, shortened: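 TMD8 human ABC-DLBCL cells with doxycycline-inducible IκBα–green luciferase fusion and unfused red luciferase, in 0.5% FBS medium; compounds up to 46 uM, 4 h at 37C. Green/red luminescence ratio, filter-overlap corrected, fitted to concentration-response curves.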
# [1] = measured here: CBR red luminescence, cell number
# [2] = measured here: IkBa-CBG green luminescence
smiles,measurement,setting,value
CC1=CC(C)(C)n2c(O)c(N=N)c3c(C)c(C)cc1c32,AC50,[1],"12.6 µM [rising, partial curve]"
CC(NC(=O)Cc1ccccc1)C(=O)O (stereo unspecified),AC50,[1],"18.4 µM [falling, single point]"
Cc1onc(-c2c(F)cccc2Cl)c1C(=O)Nc1c(C)n(C)n(-c2ccccc2)c1=O,AC50,[1],"35.5 µM [falling, single point]"
O=C1C=C(NNC(=O)c2cccnc2)CC(c2ccco2)C1 (stereo unspecified),AC50,[1],"35.5 µM [falling, single point]"
Cc1cc2c(C)nc(N/N=C/c3ccc(F)cc3)nc2o1,AC50,[1],"16.4 µM [falling, single point]"
COCCOC(=O)C1=C(C)NC(=O)NC1c1ccc(OC(=O)c2ccco2)c(OC)c1 (stereo unspecified),AC50,[1],"29.1 µM [falling, single point]"
Cc1c(Cl)cccc1Nc1nc(N)nc(CSc2nc3ccccc3s2)n1,AC50,[1],"6.51 µM [rising, partial curve, poor fit]"
O=C(CCC(=O)N1CCSc2ccccc21)NCc1ccc(Cl)cc1,AC50,[1],"15.8 µM [rising, partial curve, poor fit]"
Cc1cccc(CSc2nn3c(=O)c(C)nnc3s2)c1,AC50,[1],"16.4 µM [falling, single point]"
COc1ccc(C(=O)C=CNNC(=O)c2ccc(Cl)cc2)cc1,AC50,[1],"7.94 µM [falling, partial curve]"
Cc1cc(C(=O)NN=C2CCCCCCC2)c2ccccc2n1,AC50,[1],"29.1 µM [rising, single point]"
same,AC50,[2],"29.1 µM [falling, single point]"
Cc1ccc(C(=O)CSc2nc(C)cc(SCc3nnc(-c4ccccc4)o3)n2)cc1,AC50,[1],"0.651 µM [falling, full curve, poor fit]"
COc1ccccc1NC(=O)C(NC(=O)OC(C)(C)C)C(C)OCc1ccccc1 (stereo unspecified),AC50,[1],"10 µM [falling, partial curve]"
Cc1ccc2nc(C)c(C(=O)N/N=C/c3cccc([N+](=O)[O-])c3)cc2c1,AC50,[1],"4.61 µM [rising, full curve, poor fit]"
Cc1ccc2oc(C(F)(F)C(F)F)cc(=O)c2c1,AC50,[1],"35.5 µM [rising, single point]"
CC(=O)Nc1cccc(C(=O)Nc2ccccc2C(=O)O)c1,AC50,[1],"5.8 µM [falling, partial curve, poor fit]"
N#Cc1nc(COc2cccc(Cl)c2)oc1N1CCN(c2ccccc2)CC1,AC50,[1],"20.6 µM [falling, single point]"
CSc1ccccc1NC(=O)CCc1ccccc1,AC50,[1],"15.8 µM [falling, partial curve, poor fit]"
O=C(CSc1nnc(-c2ccc(F)cc2)c2ccccc12)Nc1ccccc1,AC50,[1],"20.6 µM [falling, single point]"
CN(C(=O)CSc1nc(N)c2c3c(sc2n1)CSC(C)(C)C3)c1ccccc1,AC50,[1],"25.9 µM [falling, single point]"
FC(F)(F)c1ccc(C2[C@H]3CN(Cc4ccc(-c5ccccc5)cc4)[C@H](c4ccccc4)C34CC2(c2ccccc2)C4)cc1 (stereo partly specified),AC50,[1],"5.62 µM [rising, single point]"
COc1ccc2nc(NC(=O)c3ccoc3C)sc2c1,AC50,[1],"3.66 µM [falling, full curve]"
COc1ccc(C2c3[nH]c4ccccc4c3CCN2CCCn2cccn2)cc1C (stereo unspecified),AC50,[1],"35.5 µM [falling, single point]"
CNC(=S)N1CCN(S(=O)(=O)c2ccc3ccccc3c2)CC1,AC50,[1],"4.47 µM [falling, full curve, poor fit]"
O=C(Nc1ccc(F)cc1)c1cccc(N2C(=O)c3ccccc3C2=O)c1,AC50,[1],"7.94 µM [falling, partial curve, poor fit]"
O=[N+]([O-])c1ccc2nc(-c3ccccc3[N+](=O)[O-])[nH]c2c1,AC50,[1],"12.6 µM [falling, partial curve, poor fit]"
O=C(CCCN1C(=O)/C(=C/c2ccccc2Cl)SC1=S)NCCCN1CCOCC1,AC50,[1],"12.6 µM [falling, partial curve]"
COC(=O)N1CCc2c(sc(NC(=O)C3COc4ccccc4O3)c2C(N)=O)C1 (stereo unspecified),AC50,[1],"25.9 µM [falling, partial curve]"
C/C(CC1CC(C)(C)OC1=O)=N\NC(N)=S (stereo unspecified),AC50,[1],"0.501 µM [rising, full curve, poor fit]"
Cc1ccc2cc(CN(CCO)Cc3nnnn3Cc3ccc(F)cc3)c(=O)[nH]c2c1,AC50,[1],"15.8 µM [falling, partial curve, poor fit]"
O=C(C1CC(=O)N(c2ccccc2)C1)N1CCN(C2=NS(=O)(=O)c3ccccc32)CC1 (stereo unspecified),AC50,[1],"0.82 µM [rising, partial curve, poor fit]"
C[C@H]1C[C@H]2[C@@H]3CCC4=CC(=O)C=C[C@]4(C)[C@@]3(Cl)[C@@H](O)C[C@]2(C)[C@@]1(O)C(=O)CO,AC50,[1],"0.0259 µM [rising, full curve, poor fit]"
COC(=O)C(NC(=O)C(C)Oc1ccccc1)C(C)C (stereo unspecified),AC50,[1],"1.16 µM [rising, full curve]"
COc1ccc(NC(=O)c2cc3ccccn3n2)cc1,AC50,[1],"20.6 µM [falling, partial curve]"
O=C(c1cccc(-c2ccc(O)cc2)c1)N1CCN(c2ccc(F)cc2)CC1,AC50,[1],"35.5 µM [rising, single point]"
CCn1c(CN2CCN(Cc3ccc(C)cc3)C(CCO)C2)nc2ccccc21 (stereo unspecified),AC50,[1],"11.2 µM [falling, single point]"
O=c1[nH]c2cc3c(cc2cc1C(c1nnnn1CC1CCCO1)N1CCCCCC1)OCO3 (stereo unspecified),AC50,[1],"25.9 µM [rising, single point]"
CC(C)[C@@H](C(=O)N[C@@H](Cc1ccccc1)C(=O)O)N1C(=O)N2CCc3c([nH]c4ccccc34)[C@@]2(C)C1=O,AC50,[1],"3.55 µM [falling, full curve, poor fit]"
COC(=O)c1ccccc1N(C)S(C)(=O)=O,AC50,[1],"0.82 µM [rising, full curve, poor fit]"
CCOC(=O)c1c(C)[nH]c(C(=O)COC(=O)CN2C(=O)C3CCCCC3C2=O)c1C (stereo unspecified),AC50,[1],"35.5 µM [falling, single point]"
CCOc1ccccc1NC(=O)CCCNC(=O)c1ccc(Cl)cc1,AC50,[1],"10 µM [rising, partial curve, poor fit]"
CSc1nc(Cl)cc(N2CCOCC2)n1,AC50,[1],"3.98 µM [falling, partial curve, poor fit]"
CCOC(=O)CCCCC(=O)c1[nH]c(=O)[nH]c1CSc1nc2ccccc2[nH]1,AC50,[1],"20.6 µM [rising, partial curve, poor fit]"
CCOc1ccccc1N(CC(=O)NC1CCCCC1)C(=O)CCC(=O)Nc1nccs1,AC50,[1],"5.01 µM [falling, full curve, poor fit]"
Cc1cc(C)nc(N/N=C/c2ccccc2)n1,AC50,[1],"7.94 µM [falling, partial curve]"
Cc1ccc(OCc2cc(C(=O)N(C)CCc3ccccc3)no2)cc1C,AC50,[1],"0.631 µM [rising, full curve, poor fit]"
O=C(COc1ccc(-c2nnco2)cc1)Nc1c(F)cccc1F,AC50,[1],"1.3 µM [falling, full curve, poor fit]"
O=C(Nc1ccc2c(c1)OCO2)c1ccc2c(c1)OCO2,AC50,[1],"11.6 µM [falling, partial curve, poor fit]"
CNc1nc2c(-c3ccc(Cl)cc3)nnn2c2ccccc12,AC50,[1],"11.2 µM [rising, partial curve]"
CCOC(=O)Cc1c(Sc2ccccc2)c2ccccc2n1C,AC50,[1],"2.59 µM [falling, partial curve]"
COCCCn1c(Cc2ccccc2)nnc1SCC(=O)N1CCCCC1,AC50,[1],"15.8 µM [falling, single point]"
Cc1ccc(C)c(N2CCN(S(=O)(=O)c3cccc4cccnc34)CC2)c1,AC50,[1],"15.8 µM [falling, single point]"
COCc1nc2ccccc2n1Cc1ccccc1Br,AC50,[1],"7.94 µM [rising, partial curve]"
Nc1nc(-c2nc3ccccc3[nH]2)cs1,AC50,[1],"23.1 µM [falling, single point]"
O=C(C1CCCN(S(=O)(=O)c2cnc[nH]2)C1)N1CC(=O)N(CCc2ccccc2)C(=O)C1 (stereo unspecified),AC50,[1],"25.9 µM [rising, partial curve, poor fit]"
FC(F)(F)c1cccc(NC(=S)NCC2COc3ccccc3O2)c1 (stereo unspecified),AC50,[1],"18.4 µM [falling, single point]"
CN(CC(=O)Nc1ccc(Cl)cc1)C(=O)CNC(=O)c1ccc2ccccc2c1,AC50,[1],"3.16 µM [falling, partial curve, poor fit]"
N/C(=N\OC(=O)COc1ccc2ccccc2c1)c1cccnc1,AC50,[1],"2.31 µM [rising, full curve, poor fit]"
O=C(CC1Nc2ccccc2NC1=O)Nc1ccccc1NC(=O)CC1Nc2ccccc2NC1=O (stereo unspecified),AC50,[1],"7.08 µM [rising, partial curve]"
COc1cccc(OC)c1C(=O)Nc1cccc(-c2nc3ccccc3[nH]2)c1,AC50,[1],"35.5 µM [rising, single point]"
same,AC50,[2],"12.6 µM [falling, single point]"
COc1ccc2cc(OC)c(C(=O)N3CCOCC3)cc2c1,AC50,[1],"3.55 µM [rising, partial curve, poor fit]"
Cc1occc1C(=O)N1CCN(c2ncccn2)CC1,AC50,[1],"32.6 µM [rising, single point]"
Cc1ccccc1CN(C)CCS(=O)(=O)c1cc(Cl)ccc1Cl,AC50,[1],"35.5 µM [rising, single point]"
same,AC50,[2],"22.4 µM [falling, single point]"

# Fetched one by one from the list above (3):
smiles,measurement,setting,value
O=[N+]([O-])c1ccc2nc(-c3ccccc3[N+](=O)[O-])[nH]c2c1,AC50,[1],"12.6 µM [falling, partial curve, poor fit]"
N#Cc1nc(COc2cccc(Cl)c2)oc1N1CCN(c2ccccc2)CC1,AC50,[1],"20.6 µM [falling, single point]"
Cc1ccc2oc(C(F)(F)C(F)F)cc(=O)c2c1,AC50,[1],"35.5 µM [rising, single point]"

# Not a retest: entries from further up.
smiles,measurement,setting,value
FC(F)(F)c1ccc(C2[C@H]3CN(Cc4ccc(-c5ccccc5)cc4)[C@H](c4ccccc4)C34CC2(c2ccccc2)C4)cc1 (stereo partly specified),AC50,[1],"5.62 µM [rising, single point]"
COc1ccc2nc(NC(=O)c3ccoc3C)sc2c1,AC50,[1],"3.66 µM [falling, full curve]"
